Test [1] addresses 3xHA-tagged TRIM52 (human) (UniProt Q96A61). The test can be described thus: co-IP; HEK-293T cells expressing 3xHA-tagged TRIM52 or ΔLoop2, treated with epoxomicin for 5 h; Frackelton lysis buffer (50 mM NaCl, 1% Triton X-100); anti-HA antibody and Protein A/G magnetic beads, 4 °C; WB for endogenous E3 ligases.
The target in test [2] is TwinStrep-tagged EGFP-TRIM52 (human) (UniProt Q96A61). The experiment in a line: co-IP; 1 µg purified EGFP-TRIM52 and 1 µg purified HUWE1 incubated in 25 mM HEPES pH 7.5, 150 mM KCl, 4 mM MgCl2, 0.5 mM TCEP at 4 °C; captured on GFP-Trap magnetic beads; WB; both purified.

The chains behind the UniProt entries cited, without tags or fusion partners.
UniProt Q96A61: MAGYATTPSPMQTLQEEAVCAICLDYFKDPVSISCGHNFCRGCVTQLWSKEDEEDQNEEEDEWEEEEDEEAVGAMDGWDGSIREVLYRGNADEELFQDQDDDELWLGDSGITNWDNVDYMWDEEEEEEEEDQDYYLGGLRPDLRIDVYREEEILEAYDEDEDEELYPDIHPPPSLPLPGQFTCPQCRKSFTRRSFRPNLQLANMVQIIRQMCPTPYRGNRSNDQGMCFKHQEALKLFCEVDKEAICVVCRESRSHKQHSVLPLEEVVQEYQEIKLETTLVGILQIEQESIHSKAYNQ
UniProt Q7Z6Z7: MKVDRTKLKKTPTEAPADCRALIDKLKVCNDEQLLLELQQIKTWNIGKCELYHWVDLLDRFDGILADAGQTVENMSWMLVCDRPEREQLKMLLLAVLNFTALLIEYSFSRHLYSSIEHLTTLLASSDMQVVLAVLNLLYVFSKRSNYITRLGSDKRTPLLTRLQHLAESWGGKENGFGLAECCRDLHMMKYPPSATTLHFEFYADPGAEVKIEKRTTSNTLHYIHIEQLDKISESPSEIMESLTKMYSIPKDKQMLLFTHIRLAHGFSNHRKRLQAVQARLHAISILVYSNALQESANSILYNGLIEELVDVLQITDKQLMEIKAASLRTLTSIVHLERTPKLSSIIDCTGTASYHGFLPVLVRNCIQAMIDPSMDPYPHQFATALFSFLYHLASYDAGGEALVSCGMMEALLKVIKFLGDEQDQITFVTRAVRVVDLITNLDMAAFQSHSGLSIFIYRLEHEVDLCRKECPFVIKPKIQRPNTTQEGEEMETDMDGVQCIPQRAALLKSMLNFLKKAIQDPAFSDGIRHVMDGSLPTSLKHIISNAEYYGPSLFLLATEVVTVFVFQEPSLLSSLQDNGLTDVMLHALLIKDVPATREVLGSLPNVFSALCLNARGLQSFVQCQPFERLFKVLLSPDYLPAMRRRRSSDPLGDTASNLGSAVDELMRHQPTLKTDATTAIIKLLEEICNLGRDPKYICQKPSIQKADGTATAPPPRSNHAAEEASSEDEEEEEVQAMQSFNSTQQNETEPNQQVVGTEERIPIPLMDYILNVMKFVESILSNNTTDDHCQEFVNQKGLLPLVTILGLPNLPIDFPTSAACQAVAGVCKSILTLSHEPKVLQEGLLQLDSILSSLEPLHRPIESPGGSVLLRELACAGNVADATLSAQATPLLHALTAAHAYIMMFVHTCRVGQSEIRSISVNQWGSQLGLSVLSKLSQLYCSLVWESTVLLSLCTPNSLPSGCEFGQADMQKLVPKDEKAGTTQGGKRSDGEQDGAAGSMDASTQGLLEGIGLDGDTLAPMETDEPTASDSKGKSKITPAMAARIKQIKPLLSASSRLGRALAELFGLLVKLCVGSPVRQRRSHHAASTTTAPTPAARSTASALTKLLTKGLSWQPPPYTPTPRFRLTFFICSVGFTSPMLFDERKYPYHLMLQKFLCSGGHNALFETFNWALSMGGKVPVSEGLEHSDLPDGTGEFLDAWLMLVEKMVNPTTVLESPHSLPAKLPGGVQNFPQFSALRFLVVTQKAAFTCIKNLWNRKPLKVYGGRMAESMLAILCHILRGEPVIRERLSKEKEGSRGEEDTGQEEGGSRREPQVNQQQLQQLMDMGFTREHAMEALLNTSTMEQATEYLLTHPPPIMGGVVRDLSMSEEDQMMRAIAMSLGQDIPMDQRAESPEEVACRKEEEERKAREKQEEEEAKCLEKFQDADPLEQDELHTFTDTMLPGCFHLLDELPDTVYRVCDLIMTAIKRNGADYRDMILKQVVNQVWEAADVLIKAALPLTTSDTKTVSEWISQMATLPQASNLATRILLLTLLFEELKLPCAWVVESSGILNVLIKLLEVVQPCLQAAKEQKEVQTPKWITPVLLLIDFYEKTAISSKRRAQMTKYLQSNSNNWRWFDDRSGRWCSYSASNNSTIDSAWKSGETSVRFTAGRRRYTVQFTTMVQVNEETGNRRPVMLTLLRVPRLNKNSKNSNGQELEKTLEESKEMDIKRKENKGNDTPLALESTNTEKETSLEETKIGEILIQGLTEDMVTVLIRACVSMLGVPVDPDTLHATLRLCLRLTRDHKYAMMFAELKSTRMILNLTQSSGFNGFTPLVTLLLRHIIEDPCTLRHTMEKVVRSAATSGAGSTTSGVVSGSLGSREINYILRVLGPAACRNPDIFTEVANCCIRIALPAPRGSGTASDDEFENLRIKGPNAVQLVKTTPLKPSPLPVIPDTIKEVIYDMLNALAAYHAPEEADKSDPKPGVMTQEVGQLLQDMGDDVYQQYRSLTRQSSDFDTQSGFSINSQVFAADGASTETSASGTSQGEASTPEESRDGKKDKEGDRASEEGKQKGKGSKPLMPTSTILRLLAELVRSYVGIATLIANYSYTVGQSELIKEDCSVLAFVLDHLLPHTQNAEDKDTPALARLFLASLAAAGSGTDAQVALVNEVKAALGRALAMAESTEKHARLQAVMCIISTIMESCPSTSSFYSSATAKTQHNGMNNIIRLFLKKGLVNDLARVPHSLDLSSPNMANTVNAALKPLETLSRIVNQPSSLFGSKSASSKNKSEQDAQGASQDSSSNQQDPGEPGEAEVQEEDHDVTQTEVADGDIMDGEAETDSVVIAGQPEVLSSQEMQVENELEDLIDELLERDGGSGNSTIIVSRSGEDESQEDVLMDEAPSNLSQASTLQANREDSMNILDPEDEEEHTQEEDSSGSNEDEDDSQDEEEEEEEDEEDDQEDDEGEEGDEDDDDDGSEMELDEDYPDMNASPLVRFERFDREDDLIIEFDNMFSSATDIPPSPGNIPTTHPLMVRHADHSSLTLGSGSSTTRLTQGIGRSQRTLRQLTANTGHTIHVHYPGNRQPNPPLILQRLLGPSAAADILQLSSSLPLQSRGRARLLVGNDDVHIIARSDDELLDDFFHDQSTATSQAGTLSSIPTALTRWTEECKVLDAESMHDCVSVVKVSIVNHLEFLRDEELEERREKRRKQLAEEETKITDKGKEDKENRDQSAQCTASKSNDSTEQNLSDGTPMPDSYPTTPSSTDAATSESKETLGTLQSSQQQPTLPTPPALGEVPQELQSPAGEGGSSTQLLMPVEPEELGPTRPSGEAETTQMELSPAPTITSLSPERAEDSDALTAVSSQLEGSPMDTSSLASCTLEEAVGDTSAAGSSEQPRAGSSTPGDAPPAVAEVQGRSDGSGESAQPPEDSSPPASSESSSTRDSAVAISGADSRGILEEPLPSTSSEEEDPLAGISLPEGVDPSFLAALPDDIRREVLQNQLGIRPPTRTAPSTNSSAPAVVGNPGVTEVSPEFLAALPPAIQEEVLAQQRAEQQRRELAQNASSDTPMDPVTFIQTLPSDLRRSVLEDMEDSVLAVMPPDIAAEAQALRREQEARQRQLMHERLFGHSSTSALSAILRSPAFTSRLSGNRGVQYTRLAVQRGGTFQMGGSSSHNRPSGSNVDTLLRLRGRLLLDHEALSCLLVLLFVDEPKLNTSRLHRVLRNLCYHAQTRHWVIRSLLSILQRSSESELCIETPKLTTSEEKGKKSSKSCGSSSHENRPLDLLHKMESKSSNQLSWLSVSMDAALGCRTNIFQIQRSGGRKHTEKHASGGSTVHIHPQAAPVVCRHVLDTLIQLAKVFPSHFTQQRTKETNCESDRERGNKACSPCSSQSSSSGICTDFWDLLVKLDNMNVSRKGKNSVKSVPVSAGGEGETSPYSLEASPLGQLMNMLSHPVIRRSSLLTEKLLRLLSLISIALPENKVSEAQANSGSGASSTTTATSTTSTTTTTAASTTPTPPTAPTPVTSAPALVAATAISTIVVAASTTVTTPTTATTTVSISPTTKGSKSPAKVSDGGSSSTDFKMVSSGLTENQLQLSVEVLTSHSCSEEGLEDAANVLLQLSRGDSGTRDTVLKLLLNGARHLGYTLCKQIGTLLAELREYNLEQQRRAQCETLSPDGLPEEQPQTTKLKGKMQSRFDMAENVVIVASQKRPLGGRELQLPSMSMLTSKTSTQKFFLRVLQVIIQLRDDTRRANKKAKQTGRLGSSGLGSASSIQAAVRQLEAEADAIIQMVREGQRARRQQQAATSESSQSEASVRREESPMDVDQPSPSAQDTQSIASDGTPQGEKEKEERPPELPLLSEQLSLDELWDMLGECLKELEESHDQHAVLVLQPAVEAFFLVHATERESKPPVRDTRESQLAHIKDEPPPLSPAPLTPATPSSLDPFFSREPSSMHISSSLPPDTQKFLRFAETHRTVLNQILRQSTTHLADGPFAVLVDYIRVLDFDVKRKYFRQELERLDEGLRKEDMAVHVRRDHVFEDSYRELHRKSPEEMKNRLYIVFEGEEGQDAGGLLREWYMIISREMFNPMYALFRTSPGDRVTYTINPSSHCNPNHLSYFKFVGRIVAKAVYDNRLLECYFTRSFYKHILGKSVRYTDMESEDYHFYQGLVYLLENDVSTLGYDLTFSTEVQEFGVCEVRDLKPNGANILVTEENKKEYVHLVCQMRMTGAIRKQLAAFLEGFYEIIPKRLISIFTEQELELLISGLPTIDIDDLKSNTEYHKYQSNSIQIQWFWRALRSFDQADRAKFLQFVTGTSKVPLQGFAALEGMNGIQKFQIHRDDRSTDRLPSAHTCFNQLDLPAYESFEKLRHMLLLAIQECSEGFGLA

This is an account of results in article PMC12022042.

Results are given in words; binding and its absence hold for the method and conditions named. For part of these data: In cells and extracts the contact can be indirect. Some binding calls cover weakened binding; strength is not graded here.

As to “HUWE1 (endogenous) (from UniProt Q7Z6Z7 1-4374) (enzyme)”, the binding entry in test [1] is given as “binds”. With “BIRC6 (endogenous) (from UniProt Q9NR09 1-4857) (enzyme)”, in test [1], the binding result was “binds”. Consider “purified human HUWE1 (from UniProt Q7Z6Z7 1-4374) (enzyme)”, for which the binding result in test [2] is on record as “binds”.
